Values of other authors in US20140329776A1, “Mitochondria-Targeted Antioxidants for Treatment of Age-Related Brain Disorders” (MITOTECH S.A., priority 2011, published 2014).
For at least one compound, name, drawing or mass did not settle the structure.

Test system: AD patients
Conditions: human, in vivo; cited from earlier work

O=C1O[C@H]([C@@H](O)CO)C(O)=C1O [ascorbate]
efficacy in treating AD patients: ineffective
